Measurements from the supplement of paper PMC10849652.
The other results are listed elsewhere or left out.

Sequences of proteins named here, by UniProt entry; tags and fusion partners are left off. A change or cut given only in a name is not applied to a line headed by its entry.
UniProt O60294: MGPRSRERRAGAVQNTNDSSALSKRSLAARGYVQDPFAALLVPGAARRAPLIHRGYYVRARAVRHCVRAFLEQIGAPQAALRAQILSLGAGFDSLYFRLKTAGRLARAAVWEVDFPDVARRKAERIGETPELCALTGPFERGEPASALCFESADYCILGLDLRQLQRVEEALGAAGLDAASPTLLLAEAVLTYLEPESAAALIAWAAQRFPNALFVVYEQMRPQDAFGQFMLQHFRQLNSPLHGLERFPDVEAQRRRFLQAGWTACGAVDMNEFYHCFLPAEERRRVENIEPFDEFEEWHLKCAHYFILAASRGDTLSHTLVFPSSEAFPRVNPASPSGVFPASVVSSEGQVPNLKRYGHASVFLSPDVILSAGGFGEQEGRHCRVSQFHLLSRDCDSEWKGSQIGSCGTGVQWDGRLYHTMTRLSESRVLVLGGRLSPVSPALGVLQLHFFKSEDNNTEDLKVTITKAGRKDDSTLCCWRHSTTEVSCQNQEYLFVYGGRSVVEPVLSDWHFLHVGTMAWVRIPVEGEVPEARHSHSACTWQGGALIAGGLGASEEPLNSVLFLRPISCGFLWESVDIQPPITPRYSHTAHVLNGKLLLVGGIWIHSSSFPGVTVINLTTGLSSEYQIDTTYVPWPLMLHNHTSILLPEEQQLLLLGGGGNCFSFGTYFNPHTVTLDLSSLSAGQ
UniProt Q86WA8: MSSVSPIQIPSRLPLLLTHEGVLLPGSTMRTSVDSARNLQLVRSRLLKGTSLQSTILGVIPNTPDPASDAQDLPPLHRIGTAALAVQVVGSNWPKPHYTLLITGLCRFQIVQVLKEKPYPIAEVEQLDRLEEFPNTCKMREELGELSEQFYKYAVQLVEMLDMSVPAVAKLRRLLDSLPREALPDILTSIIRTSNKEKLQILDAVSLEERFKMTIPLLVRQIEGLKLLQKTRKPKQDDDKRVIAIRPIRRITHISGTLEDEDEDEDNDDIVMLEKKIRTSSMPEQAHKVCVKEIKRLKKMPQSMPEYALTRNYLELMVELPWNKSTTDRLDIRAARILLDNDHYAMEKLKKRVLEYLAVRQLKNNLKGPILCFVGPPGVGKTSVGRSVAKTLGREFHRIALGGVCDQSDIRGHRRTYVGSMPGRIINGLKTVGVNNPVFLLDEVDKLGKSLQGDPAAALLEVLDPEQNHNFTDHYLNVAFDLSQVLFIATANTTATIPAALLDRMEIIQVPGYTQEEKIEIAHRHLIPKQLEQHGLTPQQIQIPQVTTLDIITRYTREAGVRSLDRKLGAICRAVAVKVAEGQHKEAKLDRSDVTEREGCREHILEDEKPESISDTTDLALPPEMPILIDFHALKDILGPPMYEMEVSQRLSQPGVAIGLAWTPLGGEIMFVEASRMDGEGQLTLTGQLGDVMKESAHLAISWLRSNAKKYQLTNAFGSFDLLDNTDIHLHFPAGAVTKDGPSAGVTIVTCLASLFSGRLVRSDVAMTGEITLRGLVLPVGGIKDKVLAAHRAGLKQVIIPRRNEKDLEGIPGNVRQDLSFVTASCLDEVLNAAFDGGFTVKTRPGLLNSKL
UniProt Q9Y2Q5, whole entry, looked up: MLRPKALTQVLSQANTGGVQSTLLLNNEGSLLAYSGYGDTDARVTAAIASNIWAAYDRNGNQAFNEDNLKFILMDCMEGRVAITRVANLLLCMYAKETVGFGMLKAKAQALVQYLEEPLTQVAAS
UniProt Q96PV6, whole entry, looked up: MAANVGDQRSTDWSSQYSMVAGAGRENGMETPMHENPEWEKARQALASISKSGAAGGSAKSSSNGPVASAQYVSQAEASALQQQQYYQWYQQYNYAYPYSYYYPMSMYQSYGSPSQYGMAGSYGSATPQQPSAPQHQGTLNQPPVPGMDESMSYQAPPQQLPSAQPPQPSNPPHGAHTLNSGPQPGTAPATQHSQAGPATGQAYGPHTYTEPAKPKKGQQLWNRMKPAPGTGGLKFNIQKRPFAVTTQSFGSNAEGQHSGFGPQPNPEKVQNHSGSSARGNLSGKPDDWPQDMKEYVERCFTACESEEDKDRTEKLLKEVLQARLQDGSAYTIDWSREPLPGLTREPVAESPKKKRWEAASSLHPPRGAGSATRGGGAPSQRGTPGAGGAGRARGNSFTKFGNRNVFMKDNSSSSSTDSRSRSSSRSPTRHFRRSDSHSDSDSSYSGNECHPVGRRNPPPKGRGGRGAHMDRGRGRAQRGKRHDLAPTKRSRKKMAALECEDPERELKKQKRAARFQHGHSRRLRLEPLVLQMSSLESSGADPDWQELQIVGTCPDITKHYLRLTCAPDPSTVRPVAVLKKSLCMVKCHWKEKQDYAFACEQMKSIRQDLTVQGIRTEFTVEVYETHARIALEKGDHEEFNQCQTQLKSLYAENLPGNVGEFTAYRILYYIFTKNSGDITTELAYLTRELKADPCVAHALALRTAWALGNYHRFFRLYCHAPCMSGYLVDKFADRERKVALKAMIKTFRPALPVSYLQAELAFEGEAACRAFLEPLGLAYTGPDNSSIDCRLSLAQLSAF
UniProt Q7L5N7: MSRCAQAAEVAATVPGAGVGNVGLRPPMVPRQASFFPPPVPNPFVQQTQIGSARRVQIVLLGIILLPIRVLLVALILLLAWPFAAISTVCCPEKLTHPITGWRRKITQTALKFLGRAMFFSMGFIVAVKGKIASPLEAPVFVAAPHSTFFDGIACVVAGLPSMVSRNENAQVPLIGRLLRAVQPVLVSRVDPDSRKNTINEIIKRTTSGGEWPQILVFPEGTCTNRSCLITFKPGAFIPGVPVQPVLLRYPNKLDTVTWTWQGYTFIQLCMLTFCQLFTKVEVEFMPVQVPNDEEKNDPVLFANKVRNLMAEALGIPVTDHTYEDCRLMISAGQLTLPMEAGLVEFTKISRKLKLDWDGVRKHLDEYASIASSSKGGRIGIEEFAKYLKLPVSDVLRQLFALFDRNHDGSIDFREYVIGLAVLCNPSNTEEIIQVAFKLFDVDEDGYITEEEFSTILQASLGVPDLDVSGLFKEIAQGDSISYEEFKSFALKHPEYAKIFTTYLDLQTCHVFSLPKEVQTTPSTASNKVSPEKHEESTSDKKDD
UniProt Q9H9P8: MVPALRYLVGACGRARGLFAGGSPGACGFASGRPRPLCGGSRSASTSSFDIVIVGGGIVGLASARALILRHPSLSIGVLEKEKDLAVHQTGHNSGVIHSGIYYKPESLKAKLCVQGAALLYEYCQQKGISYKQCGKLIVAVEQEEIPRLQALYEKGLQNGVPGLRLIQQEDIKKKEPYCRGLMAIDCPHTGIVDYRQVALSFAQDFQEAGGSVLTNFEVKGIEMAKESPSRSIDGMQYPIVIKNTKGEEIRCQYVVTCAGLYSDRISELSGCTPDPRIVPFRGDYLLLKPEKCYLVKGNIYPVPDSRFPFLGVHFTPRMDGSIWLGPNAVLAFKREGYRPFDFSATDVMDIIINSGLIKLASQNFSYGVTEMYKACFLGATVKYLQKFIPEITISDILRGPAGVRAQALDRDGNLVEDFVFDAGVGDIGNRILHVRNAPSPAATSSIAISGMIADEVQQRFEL
UniProt Q16773: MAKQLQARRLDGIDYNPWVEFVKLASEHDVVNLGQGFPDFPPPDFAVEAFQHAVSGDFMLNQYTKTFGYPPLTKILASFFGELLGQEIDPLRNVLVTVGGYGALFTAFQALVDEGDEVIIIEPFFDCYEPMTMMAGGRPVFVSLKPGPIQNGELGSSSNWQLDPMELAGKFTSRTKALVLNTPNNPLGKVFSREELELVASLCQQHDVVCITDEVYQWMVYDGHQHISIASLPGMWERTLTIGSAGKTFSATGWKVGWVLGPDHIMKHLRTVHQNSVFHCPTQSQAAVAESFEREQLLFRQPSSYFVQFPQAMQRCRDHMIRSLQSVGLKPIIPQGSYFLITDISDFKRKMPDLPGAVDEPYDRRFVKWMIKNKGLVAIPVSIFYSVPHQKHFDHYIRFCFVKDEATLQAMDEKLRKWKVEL
UniProt Q5T3J3: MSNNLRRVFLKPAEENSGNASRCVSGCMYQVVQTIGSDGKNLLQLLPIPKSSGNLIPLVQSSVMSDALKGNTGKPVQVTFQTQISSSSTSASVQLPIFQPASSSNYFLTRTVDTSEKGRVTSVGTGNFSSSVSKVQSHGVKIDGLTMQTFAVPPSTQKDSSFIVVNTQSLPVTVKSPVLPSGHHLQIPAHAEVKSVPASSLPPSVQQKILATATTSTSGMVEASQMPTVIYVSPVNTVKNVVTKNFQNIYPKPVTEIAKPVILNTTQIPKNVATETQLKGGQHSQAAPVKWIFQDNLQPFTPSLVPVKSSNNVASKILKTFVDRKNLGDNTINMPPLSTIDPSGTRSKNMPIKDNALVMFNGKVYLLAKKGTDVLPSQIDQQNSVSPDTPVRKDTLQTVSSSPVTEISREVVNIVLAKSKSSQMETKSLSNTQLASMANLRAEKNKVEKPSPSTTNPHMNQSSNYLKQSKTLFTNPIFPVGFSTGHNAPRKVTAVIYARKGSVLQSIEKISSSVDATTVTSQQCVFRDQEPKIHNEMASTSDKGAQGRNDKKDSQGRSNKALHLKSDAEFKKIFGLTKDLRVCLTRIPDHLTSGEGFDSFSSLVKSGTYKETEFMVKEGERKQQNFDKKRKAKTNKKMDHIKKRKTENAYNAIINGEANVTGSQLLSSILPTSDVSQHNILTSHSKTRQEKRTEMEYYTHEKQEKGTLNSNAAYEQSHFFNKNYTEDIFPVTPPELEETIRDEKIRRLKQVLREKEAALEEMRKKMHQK
UniProt Q9BQK8: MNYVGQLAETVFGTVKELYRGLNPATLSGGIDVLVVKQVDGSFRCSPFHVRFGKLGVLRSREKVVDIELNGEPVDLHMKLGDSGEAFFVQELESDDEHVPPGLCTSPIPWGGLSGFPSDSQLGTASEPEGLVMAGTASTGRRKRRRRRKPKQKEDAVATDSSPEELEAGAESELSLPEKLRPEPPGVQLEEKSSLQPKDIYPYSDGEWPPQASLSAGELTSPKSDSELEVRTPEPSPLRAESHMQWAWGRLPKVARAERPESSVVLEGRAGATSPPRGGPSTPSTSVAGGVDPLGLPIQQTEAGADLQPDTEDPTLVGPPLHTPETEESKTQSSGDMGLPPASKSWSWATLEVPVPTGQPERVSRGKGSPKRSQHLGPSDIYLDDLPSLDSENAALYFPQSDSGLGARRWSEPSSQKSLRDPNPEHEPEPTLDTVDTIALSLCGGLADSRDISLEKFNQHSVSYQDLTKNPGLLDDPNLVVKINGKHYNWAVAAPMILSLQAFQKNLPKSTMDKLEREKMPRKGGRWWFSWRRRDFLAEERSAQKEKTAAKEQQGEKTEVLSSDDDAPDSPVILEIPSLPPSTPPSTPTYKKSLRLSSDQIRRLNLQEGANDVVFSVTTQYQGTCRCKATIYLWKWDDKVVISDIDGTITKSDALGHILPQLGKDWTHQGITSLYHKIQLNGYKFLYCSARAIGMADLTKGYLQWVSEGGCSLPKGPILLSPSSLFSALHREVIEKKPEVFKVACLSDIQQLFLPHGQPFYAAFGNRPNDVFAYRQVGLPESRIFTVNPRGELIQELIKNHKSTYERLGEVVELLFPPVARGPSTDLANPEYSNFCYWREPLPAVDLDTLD
UniProt Q8NG48: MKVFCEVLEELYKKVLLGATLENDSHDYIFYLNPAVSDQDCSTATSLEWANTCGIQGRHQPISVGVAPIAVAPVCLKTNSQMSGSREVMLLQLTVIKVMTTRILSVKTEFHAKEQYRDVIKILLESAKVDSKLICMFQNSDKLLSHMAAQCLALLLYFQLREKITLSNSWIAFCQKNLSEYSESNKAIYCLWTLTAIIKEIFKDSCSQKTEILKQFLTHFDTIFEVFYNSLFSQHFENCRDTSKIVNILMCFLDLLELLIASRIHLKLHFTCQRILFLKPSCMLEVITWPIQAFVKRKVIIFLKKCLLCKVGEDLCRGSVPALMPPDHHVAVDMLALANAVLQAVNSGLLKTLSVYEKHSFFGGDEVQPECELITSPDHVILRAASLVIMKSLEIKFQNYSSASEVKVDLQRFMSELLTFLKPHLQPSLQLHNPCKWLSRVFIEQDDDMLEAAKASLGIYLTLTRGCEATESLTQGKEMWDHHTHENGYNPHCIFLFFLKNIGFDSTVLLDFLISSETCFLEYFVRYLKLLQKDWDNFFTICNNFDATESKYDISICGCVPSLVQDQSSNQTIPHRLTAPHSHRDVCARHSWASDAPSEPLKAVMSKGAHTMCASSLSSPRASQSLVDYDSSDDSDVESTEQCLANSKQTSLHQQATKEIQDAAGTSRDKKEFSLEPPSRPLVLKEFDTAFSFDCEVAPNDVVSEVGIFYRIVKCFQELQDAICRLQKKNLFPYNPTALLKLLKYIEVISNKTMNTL
UniProt Q13571: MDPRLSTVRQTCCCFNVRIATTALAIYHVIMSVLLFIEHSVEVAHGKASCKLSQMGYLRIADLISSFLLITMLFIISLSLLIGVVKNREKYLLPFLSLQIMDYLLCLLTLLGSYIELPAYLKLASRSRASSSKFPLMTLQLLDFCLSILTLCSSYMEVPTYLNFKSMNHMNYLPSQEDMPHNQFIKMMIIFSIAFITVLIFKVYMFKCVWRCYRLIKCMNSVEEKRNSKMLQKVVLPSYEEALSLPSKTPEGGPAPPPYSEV

How the values were obtained:
Assay in all cases: log2 fold change, soluble protein after heating vs DMSO (PISA); higher = thermal stabilisation; K562 cells, 10 uM, 30 min; active = over 0.2 and 3.5 SD of the protein, either way, in both replicates (recomputed)
[1] = compound: Cc1ccc(NC(=O)c2ccc(CN3CC[C@H](N(C)C)C3)c(C(F)(F)F)c2)cc1Nc1nccc(-c2cncnc2)n1 [bafetinib]
How it was run: (§1)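 K562 cells at 2×10^6 cells/mL were given 10 μM compound for 30 min. Aliquots then went through 3 min of heating across 48°C-58°C, were pooled, and were extracted in PBS with 0.5% NP-40 at 4°C, and the supernatant after 21,000xg for 90 min was quantified by TMTpro 16plex LC-MS/MS with channel sums equalised. Thermal stability relative to control samples, from duplicates, is given as log2 fold change.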

[2] = compound: Cc1cccc(CC(=O)N2CCc3c2ccc(-c2cn(C)c4ncnc(N)c24)c3F)n1
How it was run: as §1

[3] = compound: Cc1cn(-c2cc(NC(=O)c3ccc(C)c(Nc4nccc(-c5cccnc5)n4)c3)cc(C(F)(F)F)c2)cn1 [nilotinib]
How it was run: as §1

[4] = compound: Cc1nc(Nc2n[nH]c3c2CN(C(=O)N[C@H](CN(C)C)c2ccccc2)C3(C)C)c2sccc2n1
How it was run: as §1

[5] = compound: Cc1nc(Nc2ncc(C(=O)Nc3c(C)cccc3Cl)s2)cc(N2CCN(CCO)CC2)n1 [dasatinib]
How it was run: as §1

[6] = compound: Cc1ncc(-c2ccnc(Nc3ccc(S(C)(=O)=O)cc3)n2)n1C(C)C
How it was run: as §1

[7] = compound: Cn1cc(-c2ccc3c(c2)CCN3C(=O)Cc2cccc(C(F)(F)F)c2)c2c(N)ncnc21
How it was run: as §1

[8] = compound: Cn1cncc1[C@@](N)(c1ccc(Cl)cc1)c1ccc2c(c1)c(-c1cccc(Cl)c1)cc(=O)n2C [tipifarnib]
How it was run: as §1

[9] = compound: FC(F)(F)c1ccc(/C=C/c2nc(COc3ccc(CCCCn4ccnn4)cc3)co2)cc1 [mubritinib]
How it was run: as §1

[10] = compound: NC(=O)Nc1cc(-c2cccc(F)c2)sc1C(=O)N[C@H]1CCCNC1
How it was run: as §1

[11] = compound: NC1(c2ccc(-c3nc4ccn5c(=O)[nH]nc5c4cc3-c3ccccc3)cc2)CCC1
How it was run: as §1

[12] = compound: NCC(=O)Nc1ccc(-n2nc(C(F)(F)F)cc2-c2ccc3c(ccc4ccccc43)c2)cc1
How it was run: as §1

[13] = compound: Nc1ccccc1NC(=O)c1ccc(CNC(=O)OCc2cccnc2)cc1 [entinostat]
How it was run: as §1

[14] = compound: O=C(CCCCCCC(=O)Nc1ccccc1)NO [vorinostat]
How it was run: as §1

[15] = compound: O=C(CCCCCCNC(=O)c1cnc(N(c2ccccc2)c2ccccc2Cl)nc1)NO [citarinostat]
How it was run: as §1

[16] = compound: O=C(O)c1ccc2c(c1)nc(Nc1cccc(Cl)c1)c1ccncc12 [silmitasertib]
How it was run: as §1

[17] = compound: O=C1NC(=O)C(c2cnc3ccccn23)=C1c1cn2c3c(cc(F)cc13)CN(C(=O)N1CCCCC1)CC2
How it was run: as §1

[18] = compound: c1cc(OCCN2CCCCC2)cc(-c2n[nH]c3ccc(-c4nnc[nH]4)cc23)c1
How it was run: as §1

[19] = compound: Cn1cc(-c2ccc3nnc(C(F)(F)c4ccc5ncccc5c4)n3n2)cn1
How it was run: as §1

[20] = compound: NC(=O)c1cnc(N[C@@H]2CCCC[C@@H]2N)nc1Nc1cccc(-n2nccn2)c1
How it was run: as §1

Measured: log2 fold change

LCMT2 (UniProt O60294)
inactive: [1] -0.104 | [2] -0.042 | [3] -0.045 | [4] 0.161 | [5] -0.071 | [6] 0.042 | [7] 0.082 | [8] -0.338 | [9] 0.196 | [10] -0.003 | [11] 0.029 | [12] 0.149 | [13] 0.019 | [14] -0.047 | [15] 0.256 | [16] -0.284 | [17] 0.004 | [18] 0.055

LMTK2 (UniProt Q8IWU2)
inactive: [1] -0.036 | [2] -0.03 | [5] 0.079 | [7] 0.156 | [19] -0.032 | [8] 0.155 | [9] -0.021 | [10] -0.047 | [20] 0.009 | [11] -0.018 | [12] 0.067 | [13] 0.03 | [14] -0.079 | [16] 0.169 | [17] 0.023

LONP2 (UniProt Q86WA8)
inactive: [1] -0.037 | [2] -0.054 | [3] 0.26 | [4] -0.187 | [5] 0.024 | [6] -0.065 | [7] 0.055 | [19] -0.131 | [8] 0.012 | [9] 0.063 | [10] 0.094 | [20] 0.024 | [11] -0.279 | [12] 0.041 | [13] -0.05 | [14] -0.006 | [15] -0.069 | [16] 0.105 | [17] -0.007 | [18] -0.219

LMBR1 isoform 3 (UniProt Q8WVP7)
inactive: [1] -0.182 | [2] 0.007 | [5] 0.012 | [7] 0.093 | [19] -0.143 | [8] -0.044 | [9] 0.063 | [10] 0.047 | [20] -0.11 | [11] -0.104 | [12] -0.048 | [13] 0.071 | [14] -0.016 | [16] 0.014 | [17] -0.141

LAMTOR2 (UniProt Q9Y2Q5)
inactive: [1] -0.102 | [2] 0.045 | [3] 0.014 | [4] -0.066 | [5] 0.048 | [6] -0.124 | [7] -0.046 | [19] 0.121 | [8] 0.119 | [9] 0.072 | [10] 0.002 | [20] -0.052 | [11] -0.098 | [12] 0 | [13] 0.05 | [14] 0.009 | [15] 0.034 | [16] 0.058 | [17] -0.08 | [18] -0.107

LGALS3 (UniProt P17931)
inactive: [1] -0.084 | [2] 0.07 | [3] -0.12 | [4] 0.067 | [5] -0.061 | [6] 0.052 | [19] 0.258 | [9] -0.061 | [11] -0.064 | [14] 0.048 | [15] -0.01 | [16] -0.02 | [18] 0.072

LRBA, A0A494BZW2
inactive: [1] -0.041 | [2] 0.044 | [3] 0.019 | [4] -0.016 | [5] -0.144 | [6] 0.053 | [7] -0.076 | [19] 0.123 | [8] -0.26 | [9] -0.03 | [10] 0.036 | [20] -0.031 | [11] -0.114 | [13] 0.232 | [14] -0.032 | [15] 0.03 | [16] 0.011 | [17] 0.063 | [18] 0.028

LAMTOR4 (UniProt Q0VGL1)
inactive: [1] -0.122 | [2] 0.038 | [3] -0.015 | [4] -0.048 | [5] 0.06 | [6] -0.13 | [7] -0.059 | [19] 0.052 | [8] 0.123 | [9] 0.049 | [10] -0.024 | [20] -0.13 | [11] -0.21 | [12] -0.111 | [13] 0.058 | [14] -0.048 | [15] 0.085 | [16] 0.027 | [17] -0.133 | [18] -0.075

LENG8 (UniProt Q96PV6)
inactive: [1] -0.088 | [2] 0.112 | [3] 0.006 | [4] -0.036 | [5] -0.388 | [6] -0.146 | [7] -0.039 | [19] -0.031 | [9] 0.032 | [10] -0.012 | [20] -0.075 | [11] 0.042 | [12] -0.198 | [13] 0.085 | [14] 0.298 | [15] 0 | [16] 0.09 | [17] -0.144 | [18] -0.091

LPCAT2 (UniProt Q7L5N7)
inactive: [1] -0.061 | [2] 0.037 | [5] -0.061 | [7] -0.041 | [19] -0.014 | [8] 0.035 | [9] 0.07 | [10] -0.027 | [20] -0.106 | [11] -0.3 | [12] -0.046 | [13] -0.034 | [14] 0.07 | [15] -0.001 | [16] 0.132 | [17] -0.041 | [18] 0.106

4 consecutive records out of the list so far, for reference:
LMBR1 isoform 3 (UniProt Q8WVP7)
inactive: [1] -0.182 | [2] 0.007 | [5] 0.012 | [7] 0.093 | [19] -0.143 | [8] -0.044 | [9] 0.063 | [10] 0.047 | [20] -0.11 | [11] -0.104 | [12] -0.048 | [13] 0.071 | [14] -0.016 | [16] 0.014 | [17] -0.141

LAMTOR2 (UniProt Q9Y2Q5)
inactive: [1] -0.102 | [2] 0.045 | [3] 0.014 | [4] -0.066 | [5] 0.048 | [6] -0.124 | [7] -0.046 | [19] 0.121 | [8] 0.119 | [9] 0.072 | [10] 0.002 | [20] -0.052 | [11] -0.098 | [12] 0 | [13] 0.05 | [14] 0.009 | [15] 0.034 | [16] 0.058 | [17] -0.08 | [18] -0.107

LGALS3 (UniProt P17931)
inactive: [1] -0.084 | [2] 0.07 | [3] -0.12 | [4] 0.067 | [5] -0.061 | [6] 0.052 | [19] 0.258 | [9] -0.061 | [11] -0.064 | [14] 0.048 | [15] -0.01 | [16] -0.02 | [18] 0.072

LRBA, A0A494BZW2
inactive: [1] -0.041 | [2] 0.044 | [3] 0.019 | [4] -0.016 | [5] -0.144 | [6] 0.053 | [7] -0.076 | [19] 0.123 | [8] -0.26 | [9] -0.03 | [10] 0.036 | [20] -0.031 | [11] -0.114 | [13] 0.232 | [14] -0.032 | [15] 0.03 | [16] 0.011 | [17] 0.063 | [18] 0.028

(list continues)

L2HGDH (UniProt Q9H9P8)
inactive: [1] -0.089 | [2] -0.037 | [3] 0.06 | [4] 0.002 | [5] -0.046 | [6] -0.002 | [7] 0.077 | [19] 0.053 | [8] 0.021 | [9] 0.061 | [10] -0.035 | [20] -0.026 | [11] -0.145 | [12] 0.007 | [13] -0.012 | [14] -0.014 | [15] 0.029 | [16] 0.15 | [17] -0.053 | [18] 0.029

KYAT1 (UniProt Q16773)
inactive: [1] -0.046 | [2] -0.043 | [3] 0.002 | [4] 0.035 | [5] -0.021 | [6] 0.038 | [7] -0.023 | [19] 0.009 | [8] -0.009 | [9] 0.044 | [10] 0.011 | [20] -0.018 | [11] -0.025 | [12] -0.033 | [13] -0.001 | [14] 0.063 | [15] 0.065 | [16] -0.011 | [17] -0.036 | [18] -0.055

LRIF1 (UniProt Q5T3J3)
inactive: [1] 0.007 | [2] -0.064 | [3] 0.095 | [4] 0.038 | [5] -0.096 | [6] -0.038 | [7] 0.055 | [19] 0.1 | [8] 0.102 | [9] -0.044 | [10] 0.005 | [20] 0.069 | [11] 0.125 | [12] 0.051 | [13] -0.004 | [14] -0.056 | [15] 0.004 | [16] -0.119 | [17] 0.011 | [18] -0.016

LLGL2 (UniProt Q6P1M3)
inactive: [1] 0.016 | [2] 0.076 | [3] 0.029 | [4] 0.206 | [6] -0.104 | [7] -0.079 | [19] 0.028 | [8] 0.044 | [9] -0.098 | [20] 0.105 | [11] 0.097 | [14] -0.004 | [15] -0.02 | [16] 0.111 | [17] -0.007 | [18] -0.219

LPIN3 isoform 2 (UniProt Q9BQK8)
inactive: [1] 0.006 | [2] 0.024 | [3] -0.005 | [4] -0.051 | [5] -0.128 | [6] 0.038 | [7] 0.06 | [19] 0.002 | [8] 0.008 | [9] 0.089 | [10] 0.014 | [20] -0.027 | [11] -0.044 | [12] 0.041 | [13] -0.006 | [14] 0.011 | [15] 0.001 | [16] -0.116 | [17] -0.054 | [18] -0.142

LIN9 isoform 2 (UniProt Q5TKA1)
inactive: [1] 0.095 | [7] -0.018 | [19] -0.032 | [10] 0.095 | [20] -0.159 | [12] 0.085 | [13] 0.015 | [15] -0.322 | [17] 0.038 | [18] -0.217

LINS1 (UniProt Q8NG48)
inactive: [1] -0.062 | [19] -0.081 | [9] 0.157 | [10] 0.027 | [20] 0.024 | [11] -0.085 | [13] 0.073 | [16] -0.051 | [17] -0.038

LIN28A (UniProt Q9H9Z2)
inactive: [1] 0.16 | [2] -0.026 | [5] 0.055 | [7] -0.097 | [10] 0.181 | [13] -0.075 | [14] 0.136

LAPTM5 (UniProt Q13571)
inactive: [1] 0.103 | [2] 0.056 | [5] 0.05 | [7] -0.205 | [19] -0.161 | [20] -0.033 | [14] 0.042
